# The list shows a part of the results. Shown are side measurements of this screen, not its main read-out; they come without a call. Compounds called inactive in the main read-out are mostly missing here. Potencies come from curve fits of mixed quality, noted in brackets.
# Assay: qHTS Assay for Lipid Storage Modulators in Drosophila S3 Cells;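 for cell number change: cells counted by Cell Tracker Red CMTPX staining in the red channel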
# Conditions: BODIPY lipid droplet fluorescence, 18-24 h; for cell number change: measured here: cell count max response, cells fed with added oleic acid
# Outline: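 Drosophila S3 cells loaded with oleic acid (400 uM, as added) and compounds at several concentrations; lipid droplets imaged by 488-nm laser-scanning cytometry, 500–530 nm intensity and object ratio to cell channel. Percent activity normalized to 20 uM Triacsin C.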
# [1] = measured here: lipid fluorescence (Fed channel) AC50, cells fed with added oleic acid
# [2] = measured here: cell number channel AC50, cells fed with added oleic acid
structure (smiles),measurement,setting,value
CC(=O)c1c(C)[nH]c(C(=O)OCC(=O)c2ccc(C)s2)c1C,cell number change,,-7.8%
same,AC50,[1],"0.00411 µM [falling, full curve, poor fit]"
O=C(CN1C(=O)c2ccc([N+](=O)[O-])cc2C1=O)NC1CCS(=O)(=O)C1 (stereo not drawn),cell number change,,-3.74%
same,AC50,[1],"3.66 µM [rising, partial curve]"
CCOc1ccc(S(=O)(=O)NCCC(=O)NCCCSc2ccccc2)cc1,AC50,[2],"0.461 µM [rising, full curve]"
same,AC50,[1],"0.651 µM [rising, partial curve, poor fit]"
CC(C)C(=O)Nc1cccc(NC(=O)CCN2C(=O)c3ccccc3S2(=O)=O)c1,cell number change,,-36.9%
same,AC50,[2],"2.59 µM [falling, full curve]"
same,AC50,[1],"8.2 µM [falling, partial curve]"
C=CC[n+]1c(C)csc1Nc1ccc(C)cc1,AC50,[2],"6.51 µM [rising, single point]"
c1ccc2c(CNCCN3CCOCC3)cccc2c1,cell number change,,-7.48%
same,AC50,[1],"29.1 µM [falling, single point]"
CCOc1cc(CNCCO)cc(Br)c1OCc1ccc(Cl)cc1Cl,cell number change,,-21.8%
COc1ccc(S(=O)(=O)N2Cc3ccccc3CC2C(=O)Nc2ccc3c(c2)OCO3)cc1 (stereo not drawn),cell number change,,4.8%
same,AC50,[1],"1.16 µM [rising, single point]"
Cc1ccc(NC(=O)Cn2nc(C(=O)O)c3ccccc3c2=O)c([N+](=O)[O-])c1,cell number change,,-16.2%
same,AC50,[1],"6.51 µM [rising, single point]"
Cc1ccc(-n2cnc3ncnc(-c4ccccc4)c32)cc1,cell number change,,-8.31%
same,AC50,[2],"0.146 µM [falling, full curve, poor fit]"
same,AC50,[1],"29.1 µM [falling, single point]"
Cc1nc(CCNC(=O)C2CCC(=O)N(CCc3cccc(F)c3)C2)sc1C (stereo not drawn),cell number change,,-13.6%
CC(=O)Nc1ccc(S(=O)(=O)N2CCN(c3cc(C)nc4ccccc34)CC2)cc1,cell number change,,67.6%
same,AC50,[2],"2.06 µM [rising, partial curve]"
same,AC50,[1],"2.06 µM [rising, partial curve]"
CCCCCCCNC(=O)C1CC(=O)N(C)C(=Nc2ccc(OC)cc2)S1 (stereo not drawn),cell number change,,16.6%
same,AC50,[1],"2.31 µM [rising, full curve]"
CCCCn1nnc(NC(=O)c2ccc(-c3cccc([N+](=O)[O-])c3)o2)n1,cell number change,,-3.82%
same,AC50,[2],"0.731 µM [rising, partial curve, poor fit]"
same,AC50,[1],"0.82 µM [rising, single point]"
CC1=C(C(=O)OC2CCCCC2)C(c2ccccc2F)NC(=O)N1 (stereo not drawn),cell number change,,22.5%
same,AC50,[1],"29.1 µM [rising, single point]"
Cn1cc(S(=O)(=O)CC(=O)Nc2ccc(Br)cc2)c2ccccc21,cell number change,,17.7%
same,AC50,[1],"29.1 µM [rising, single point]"
CCn1c(=O)cc(N2CCC3(CC2)OCCO3)[nH]c1=O,cell number change,,-27.1%
same,AC50,[1],"20.6 µM [falling, single point]"
O=C(CN1CCS(=O)(=O)CC1)N/N=C/c1cccc(C(F)(F)F)c1,cell number change,,27.8%
same,AC50,[1],"35.5 µM [rising, single point]"
Cc1ccc2nc(NC(=O)CSc3nc(=O)n(CCN(C)C)c4c3CCCC4)sc2c1,cell number change,,-3.1%
O=C(CSc1ncnc2sc(-c3ccccc3)cc12)NC1CCS(=O)(=O)C1 (stereo not drawn),cell number change,,-26.4%
CCNC(=S)NNC(=O)c1ccoc1C,cell number change,,4.63%
same,AC50,[1],"0.411 µM [falling, single point]"
COc1cccc(CNC(=O)C(=O)NCC2CCCN2S(=O)(=O)c2cc(C)ccc2C)c1 (stereo not drawn),AC50,[2],"6.51 µM [rising, single point]"
CC12CN3CC(C)(CN(C1)C3c1ccc(Br)cc1)C2 (stereo not drawn),cell number change,,-16.4%
same,AC50,[2],"1.16 µM [falling, partial curve]"
same,AC50,[1],"0.92 µM [falling, full curve]"
O=C(CCc1nnc(-c2ccc(-c3ccccc3)cc2)o1)N1CCCCC1,cell number change,,-21.6%
COC(=O)N/N=C(\CCC(=O)O)c1cccs1,cell number change,,-6.62%
CCn1nc(C(=O)NNC(=O)COc2ccccc2C)c2ccccc2c1=O,cell number change,,-7.69%
same,AC50,[1],"10.3 µM [rising, partial curve]"
Cn1c(/C(C#N)=C(\O)c2ccc(S(=O)(=O)N3CCCCC3)cc2)nc2ccccc21,cell number change,,7.58%
COC(=O)[C@@]12CCCN1[C@H](c1ccc(-c3ccc(C(C)=O)cc3)c(OC)c1)[C@H]1C(=O)N(C)C(=O)[C@H]12,cell number change,,-22.8%
same,AC50,[1],"0.164 µM [rising, full curve, poor fit]"
Cn1ccnc1Sc1nnnn1-c1ccccc1,cell number change,,-14.9%
same,AC50,[2],"2.06 µM [falling, partial curve, poor fit]"
same,AC50,[1],"0.82 µM [falling, full curve, poor fit]"
O=C(CSc1ccc(Cl)cc1)N1N=CCC1c1ccccc1 (stereo not drawn),AC50,[1],"29.1 µM [falling, single point]"
COc1ccc(C(=O)N/N=C2\SCC(=O)N2Cc2ccc3c(c2)OCO3)c(OC)c1,cell number change,,-66.4%
same,AC50,[2],"29.1 µM [falling, single point]"
same,AC50,[1],"29.1 µM [falling, single point]"
COc1ccc(NS(=O)(=O)c2cccc(NC(=O)COc3ccc(OC)cc3)c2)cc1,cell number change,,-18.7%
same,AC50,[1],"29.1 µM [falling, single point]"
CCc1sc(C(=O)NC)cc1Br,cell number change,,-0.27%
same,AC50,[1],"0.291 µM [falling, partial curve, poor fit]"
CC(CCc1ccccc1)NC(=O)CCNS(=O)(=O)c1ccccc1C(F)(F)F (stereo not drawn),cell number change,,3.3%
same,AC50,[1],"20.6 µM [rising, partial curve, poor fit]"
Cc1cccc(NC(=O)C2C(C(=O)O)C3C=CC2C32CC2)c1C (stereo not drawn),cell number change,,51.3%
same,AC50,[2],"20.6 µM [rising, single point]"
same,AC50,[1],"18.4 µM [rising, single point]"
Cc1ccc(C)c(N2CCN(C(=O)C3CCN(c4nnc(N5CCCC5=O)s4)CC3)CC2)c1,AC50,[2],"0.58 µM [falling, single point]"
same,AC50,[1],"1.16 µM [falling, single point]"
Cc1cccc2cc(CN(Cc3cccs3)C3(c4nnnn4C4CCCC4)CCCC3)c(=O)[nH]c12,cell number change,,17.4%
C=CCSc1nnc(NC(=O)C23CC4CC(CC(NC(C)=O)(C4)C2)C3)s1,cell number change,,10.8%
same,AC50,[1],"29.1 µM [falling, partial curve, poor fit]"

# A portion from further up, as a working copy:
structure (smiles),measurement,setting,value
O=C(CN1CCS(=O)(=O)CC1)N/N=C/c1cccc(C(F)(F)F)c1,cell number change,,27.8%
same,AC50,[1],"35.5 µM [rising, single point]"
Cc1ccc2nc(NC(=O)CSc3nc(=O)n(CCN(C)C)c4c3CCCC4)sc2c1,cell number change,,-3.1%
O=C(CSc1ncnc2sc(-c3ccccc3)cc12)NC1CCS(=O)(=O)C1 (stereo not drawn),cell number change,,-26.4%
CCNC(=S)NNC(=O)c1ccoc1C,cell number change,,4.63%
same,AC50,[1],"0.411 µM [falling, single point]"
COc1cccc(CNC(=O)C(=O)NCC2CCCN2S(=O)(=O)c2cc(C)ccc2C)c1 (stereo not drawn),AC50,[2],"6.51 µM [rising, single point]"
CC12CN3CC(C)(CN(C1)C3c1ccc(Br)cc1)C2 (stereo not drawn),cell number change,,-16.4%
same,AC50,[2],"1.16 µM [falling, partial curve]"
same,AC50,[1],"0.92 µM [falling, full curve]"
O=C(CCc1nnc(-c2ccc(-c3ccccc3)cc2)o1)N1CCCCC1,cell number change,,-21.6%
COC(=O)N/N=C(\CCC(=O)O)c1cccs1,cell number change,,-6.62%
CCn1nc(C(=O)NNC(=O)COc2ccccc2C)c2ccccc2c1=O,cell number change,,-7.69%
